Results: the supplement of paper PMC7877785
± gives the uncertainty stated by the source. Many of these values have a large error.

Test: self-splicing fitness, log relative to wild type (ln ratio); higher = more splicing; Tetrahymena group I intron in knt gene, E. coli kanamycin selection, DiMSum; sequences stand for … in CUCUCU…GGAGGGAAAAGUUAUCAGGCAUGCACCUGGUAGCUAGUCUUUAAACCAAUAGAUUGCAUCGGUUUAAAAGGCAAGACCGUCAAAUUGCGGGAAAGGGGUCAACAGCCGUUCAGUACCAAGUCUCAGGGGAAACUUUGAGAUGGCCUUGCAAAGGGUAUGGUAAUAAGCUGACGGACAUGGUCCUAACCACGCAGCCAAGUCCUAAGUCAACAGAUCUUCUGUUGAUAUGGAUGCAGUUCACAGACUAAAUGUCGGUCGGGGAAGAUGUAUUCUUCUCAUAAGAUAUAGUCGGACCUCUCCUUAAUGGGAGCUAGCGGAUGAAGUGAUGCAACACUGGAGCCGCUGGGAACUAAUUUGUAUGCGAAAGUAUAUUGAUUAGUUUUGGAGUACUCGUGGUCG
Summary of the method: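 The eight P1ex-region nucleotides of an intron in the knt kanamycin-resistance gene on pET-22b(+) were all randomised and the library put into E. coli BL21(DE3). Six replicate transformations were grown overnight at 37°C or 30°C on LB agar with or without 25 μg/mL kanamycin, together with 100 μg/mL carbenicillin, 50 μM IPTG and 0.2% rhamnose. Colonies were pooled and amplicon-sequenced on an Illumina HiSeq 2500. Fitness from DiMSum is the error-weighted combination of wild-type-normalised replicate fold changes, kanamycin over none.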

Sequence | self-splicing fitness (ln) (30 °C) | self-splicing fitness (ln) (37 °C)
CGGUAGCAAUAUUACGAUGA | -1.38 ± 0.13 | -0.66 ± 0.16
CUGGAGCAAUAUUACGGCUA | -3 ± 0.77 | 
CGAGAGCAAUAUUACGAACC | -2.09 ± 1.4 | 
UUUAAGCAAUAUUACGCCAU | -2.02 ± 1.2 | 
GAUGAGCAAUAUUACGCCGA | -2.45 ± 0.56 | 
AGAGAGCAAUAUUACGUCGA |  | -2.74 ± 0.53
UUGAAGCAAUAUUACGGCAU | -0.14 ± 0.06 | 1.08 ± 0.08
GGCCAGCAAUAUUACGAGCC | -2.63 ± 0.26 | -2.72 ± 0.29
AACCAGCAAUAUUACGGACC | 0.38 ± 0.1 | -0.273 ± 0.11
GUGGAGCAAUAUUACGACUG | -3.13 ± 0.74 | -1.44 ± 0.69
UUCUAGCAAUAUUACGGCCC |  | -1.78 ± 1.2
UCGGAGCAAUAUUACGUAUA | -3.31 ± 0.75 | -1.88 ± 1.2
AUCUAGCAAUAUUACGUGAU | -1.16 ± 0.14 | -2.25 ± 0.32
CGGGAGCAAUAUUACGCUCC |  | -0.778 ± 1.4
ACGCAGCAAUAUUACGCAGG | -4.17 ± 0.6 | 
CCUUAGCAAUAUUACGGCCU | -4.17 ± 1.1 | 
CCGUAGCAAUAUUACGCUAU | -4.08 ± 1 | -3.33 ± 1
AUUGAGCAAUAUUACGUUUC | -3.85 ± 0.73 | 
UCACAGCAAUAUUACGCAAC | -3.65 ± 0.6 | 
AAUGAGCAAUAUUACGGGCC | -4 ± 0.73 | 
CCAUAGCAAUAUUACGCACC |  | -2.13 ± 0.63
UCUCAGCAAUAUUACGGUCC |  | -3.52 ± 0.52
CAUGAGCAAUAUUACGGGAA | -3.83 ± 0.62 | 
GGAGAGCAAUAUUACGAAAU | -3.86 ± 0.6 | 
ACUGAGCAAUAUUACGUAUC | -4.78 ± 1 | 

Sequence | self-splicing fitness (ln) (30 °C) | self-splicing fitness (ln) (37 °C)
AAGGAGCAAUAUUACGAUGC | -3.87 ± 0.52 | -2.27 ± 0.63
CAAGAGCAAUAUUACGGGCC | -4.91 ± 0.51 | 
UACGAGCAAUAUUACGUCAA | -3.26 ± 0.63 | 
CCGGAGCAAUAUUACGUUCC |  | -0.234 ± 1.4
GACGAGCAAUAUUACGAAAU |  | -2.79 ± 0.53
GAUAAGCAAUAUUACGCUUC | -5.25 ± 0.58 | 
GUUGAGCAAUAUUACGUCCG |  | -1.5 ± 0.69
CCCUAGCAAUAUUACGAACG | -3 ± 0.21 | -2.59 ± 0.29
CGGGAGCAAUAUUACGGGGU |  | -1.6 ± 0.72
UAGGAGCAAUAUUACGAAUC | -5.18 ± 1 | 
CGUGAGCAAUAUUACGAGUA | -2.35 ± 0.62 | 
CGUCAGCAAUAUUACGAGCC |  | -1.77 ± 0.53
GGAUAGCAAUAUUACGUUAG | -4.44 ± 0.6 | 
GGCAAGCAAUAUUACGGAAC | -1.46 ± 0.13 | 0.485 ± 0.21
CGAAAGCAAUAUUACGGGUG | 0.0165 ± 0.043 | 0.189 ± 0.063
UUUGAGCAAUAUUACGUACU |  | -1.95 ± 0.59
UUUGAGCAAUAUUACGCCUA |  | -0.858 ± 0.64
GCGGAGCAAUAUUACGAGAG | -3.58 ± 1 | 
AGUCAGCAAUAUUACGCUGC |  | -1.22 ± 0.51
UGCGAGCAAUAUUACGAUCC | -3.6 ± 0.73 | 
CAUGAGCAAUAUUACGCUUU | -4.58 ± 0.51 | -3.02 ± 0.24
GUGCAGCAAUAUUACGAGCC |  | -1.33 ± 1.2
AACCAGCAAUAUUACGCCCG | -0.353 ± 0.1 | -0.271 ± 0.17
CAUUAGCAAUAUUACGCCGG | -0.963 ± 0.15 | 0.612 ± 0.24
GGGGAGCAAUAUUACGAGAU | -3.48 ± 0.63 | -1.65 ± 0.51

Sequence | self-splicing fitness (ln) (30 °C) | self-splicing fitness (ln) (37 °C)
CGGGAGCAAUAUUACGAAAA | -2.56 ± 0.65 | -1.43 ± 0.55
AGCGAGCAAUAUUACGAGGC |  | -2.13 ± 0.78
GUGAAGCAAUAUUACGAGGA | -3.03 ± 0.54 | 
UCGGAGCAAUAUUACGGUCU |  | -2.11 ± 0.55
CCAGAGCAAUAUUACGGAGA |  | -2.37 ± 0.55
GGAAAGCAAUAUUACGUCUC |  | -2.29 ± 0.79
CAACAGCAAUAUUACGAAGU | -5.26 ± 0.71 | 
GGGGAGCAAUAUUACGGGCU | -2.37 ± 0.56 | -1.74 ± 0.59
CCAGAGCAAUAUUACGUAUA | -4.6 ± 0.51 | 
AACCAGCAAUAUUACGGCCG | 0.0592 ± 0.073 | -0.223 ± 0.1
UUGGAGCAAUAUUACGUAGC | -4.44 ± 1 | -0.234 ± 1
UCGUAGCAAUAUUACGGUCC |  | -2.3 ± 1.1
CUGUAGCAAUAUUACGCUCC |  | -1.39 ± 1.2
UCGAAGCAAUAUUACGUGCC |  | -2.77 ± 1.1
GUGUAGCAAUAUUACGACCC | -0.86 ± 1.4 | -1.97 ± 0.58
GCGAAGCAAUAUUACGCUGU |  | -2.69 ± 0.63
UAGUAGCAAUAUUACGCGGU | -3.86 ± 0.72 | -3.31 ± 0.52
UGCGAGCAAUAUUACGUCAC | -1.96 ± 0.5 | 
CCCGAGCAAUAUUACGACUC | -3.6 ± 0.78 | -0.949 ± 0.51
GGGUAGCAAUAUUACGCCCC | -1.32 ± 1.4 | 
GCCUAGCAAUAUUACGUCUG | -3.97 ± 0.53 | -3.15 ± 0.6
CCUAAGCAAUAUUACGCAGC | -3.07 ± 0.29 | -2.46 ± 0.24
UUCGAGCAAUAUUACGAUUC |  | -3.23 ± 0.52
GCUAAGCAAUAUUACGGAGC | -3.98 ± 0.51 | 
UCAUAGCAAUAUUACGGCCA | -1.68 ± 0.87 | 

Single values from above.
In self-splicing fitness (ln) (37 °C), UUGGAGCAAUAUUACGUAGC is listed with -0.234 ± 1
In self-splicing fitness (ln) (30 °C), UGCGAGCAAUAUUACGUCAC is listed with -1.96 ± 0.5

Reprinted at random: 2 records from the list.
Sequence | self-splicing fitness (ln) (30 °C) | self-splicing fitness (ln) (37 °C)
UGCGAGCAAUAUUACGUCAC | -1.96 ± 0.5 | 
CCUAAGCAAUAUUACGCAGC | -3.07 ± 0.29 | -2.46 ± 0.24

Later entries.

Sequence | self-splicing fitness (ln) (30 °C) | self-splicing fitness (ln) (37 °C)
UUGUAGCAAUAUUACGCGCU | -2.05 ± 0.16 | -0.976 ± 0.11
CGAGAGCAAUAUUACGUUCC | -2.65 ± 0.76 | 
GGAUAGCAAUAUUACGCCGG | -4 ± 1 | 
ACUAAGCAAUAUUACGCCUA | -1.41 ± 0.13 | -0.734 ± 0.13
GACUAGCAAUAUUACGACAU | -0.511 ± 0.012 | -0.122 ± 0.032
UCUUAGCAAUAUUACGAAUU | -3.75 ± 1 | 
UCUGAGCAAUAUUACGCGUC | -4.17 ± 0.51 | 
UAGGAGCAAUAUUACGUUAC | -3.41 ± 0.6 | 
UUAGAGCAAUAUUACGGCCU |  | -3.09 ± 0.6
CGUAAGCAAUAUUACGGAGC |  | -2.29 ± 1.1
GCCAAGCAAUAUUACGGUCG | -3.19 ± 0.13 | -2.27 ± 0.17
CUCUAGCAAUAUUACGACGU | -4.49 ± 0.6 | 
CACUAGCAAUAUUACGAAAC | -3.53 ± 0.6 | -3.29 ± 0.6
GAAGAGCAAUAUUACGGCCC | -2.79 ± 1.2 | 
UCAGAGCAAUAUUACGGAUC | -3.79 ± 0.73 | 
GGUGAGCAAUAUUACGCACG | -1.27 ± 1.4 | 
CGCGAGCAAUAUUACGCCCG | -3.84 ± 0.61 | -2.5 ± 0.77
CUUGAGCAAUAUUACGUUGC | -2.65 ± 0.74 | 
CCCUAGCAAUAUUACGUCCC | -2.51 ± 0.66 | 
GGAAAGCAAUAUUACGCUCC | -3.18 ± 0.54 | -0.693 ± 1.4
UAAGAGCAAUAUUACGUCGC | -4.32 ± 0.72 | 
CGCGAGCAAUAUUACGUCCA | -2.97 ± 0.75 | 
CCCUAGCAAUAUUACGCUCC | -4.64 ± 0.71 | 
UAGAAGCAAUAUUACGGUAC |  | -3.11 ± 0.52
